Measured values as given in the supplement of paper PMC10077471.
In all, about 1,900 compounds were measured (“excess over highest single agent (ExcessHSA) synergy score, 6x6 matrix”: median about -83, lowest 2% from about -370 on). This is one part of the list.

Test system: NCI-H446
Assay: excess over highest single agent (ExcessHSA) synergy score, 6x6 matrix; higher = less synergy (more negative = stronger synergy)
Conditions: 72 h; CellTiter-Glo viability

| SMILES | excess over highest single agent |
| --- | --- |
| CNC1CCC(N(Cc2cccc(-c3ccncc3)c2)C(=O)c2sc3ccccc3c2Cl)CC1 (stereo not given) + Cc1sc2c(c1C)C(c1ccc(Cl)cc1)=N[C@@H](CC(=O)OC(C)(C)C)c1nnc(C)n1-2 [NCGC00250412-19] | -119 |
| NC(=O)c1ccc2nc(-c3ccc(Oc4ccc(Cl)cc4)cc3)[nH]c2c1 + Cc1sc2c(c1C)C(c1ccc(Cl)cc1)=N[C@@H](CC(=O)OC(C)(C)C)c1nnc(C)n1-2 [NCGC00250412-19] | 83.3 |
| CC(=O)NCC(=O)N1[C@@H]2CC[C@H]1c1ccc(Nc3ncc(C(F)(F)F)c(NC4CCC4)n3)cc12 + Cc1sc2c(c1C)C(c1ccc(Cl)cc1)=N[C@@H](CC(=O)OC(C)(C)C)c1nnc(C)n1-2 [NCGC00250412-19] | -534 |
| C=CCc1cc(OC)c(O)c(C(=O)NCCO)c1 + Cc1sc2c(c1C)C(c1ccc(Cl)cc1)=N[C@@H](CC(=O)OC(C)(C)C)c1nnc(C)n1-2 [NCGC00250412-19] | 33.1 |
| Cc1cc2c(cc1C1(c3ccc(C(=O)O)cn3)CC1)C(C)(C)CCC2(C)C + Cc1sc2c(c1C)C(c1ccc(Cl)cc1)=N[C@@H](CC(=O)OC(C)(C)C)c1nnc(C)n1-2 [NCGC00250412-19] | -297 |
| NC(=O)c1cccc2[nH]c(-c3ccc(C4CCCN4)cc3F)nc12 (stereo not given) + Cc1sc2c(c1C)C(c1ccc(Cl)cc1)=N[C@@H](CC(=O)OC(C)(C)C)c1nnc(C)n1-2 [NCGC00250412-19] | -20.3 |
| Cc1cc(C(=O)N2CCN(c3cccc(Cl)c3)CC2)n(-c2ccccc2)n1 + Cc1sc2c(c1C)C(c1ccc(Cl)cc1)=N[C@@H](CC(=O)OC(C)(C)C)c1nnc(C)n1-2 [NCGC00250412-19] | -153 |
| COc1cc2c(cc1O)CC[C@@H]1[C@@H]2CC[C@]2(C)[C@@H](O)CC[C@@H]12 + Cc1sc2c(c1C)C(c1ccc(Cl)cc1)=N[C@@H](CC(=O)OC(C)(C)C)c1nnc(C)n1-2 [NCGC00250412-19] | -161 |
| Clc1ccccc1CN1CCc2sccc2C1 + Cc1sc2c(c1C)C(c1ccc(Cl)cc1)=N[C@@H](CC(=O)OC(C)(C)C)c1nnc(C)n1-2 [NCGC00250412-19] | 84.7 |
| COC(=O)N1CCN(Cc2cccc(NC(=O)Nc3ccc(C)nc3)c2F)CC1 + Cc1sc2c(c1C)C(c1ccc(Cl)cc1)=N[C@@H](CC(=O)OC(C)(C)C)c1nnc(C)n1-2 [NCGC00250412-19] | -134 |
| CN(C)CCCN1c2ccccc2CCc2ccc(Cl)cc21 + Cc1sc2c(c1C)C(c1ccc(Cl)cc1)=N[C@@H](CC(=O)OC(C)(C)C)c1nnc(C)n1-2 [NCGC00250412-19] | -47.1 |
| c1cc(-c2sc(-c3ccncc3)c(-c3ccncc3)c2-c2ccncc2)ccn1 + Cc1sc2c(c1C)C(c1ccc(Cl)cc1)=N[C@@H](CC(=O)OC(C)(C)C)c1nnc(C)n1-2 [NCGC00250412-19] | -182 |
| CNC(=O)c1ccc2cc([C@@]3(O)CCn4cncc43)ccc2c1 + Cc1sc2c(c1C)C(c1ccc(Cl)cc1)=N[C@@H](CC(=O)OC(C)(C)C)c1nnc(C)n1-2 [NCGC00250412-19] | -173 |
| CS(=O)(=O)c1ccc([C@@H](O)[C@@H](CO)NC(=O)C(Cl)Cl)cc1 + Cc1sc2c(c1C)C(c1ccc(Cl)cc1)=N[C@@H](CC(=O)OC(C)(C)C)c1nnc(C)n1-2 [NCGC00250412-19] | -36.6 |
| C[C@]12C=CC(=O)C=C1CC[C@@H]1[C@@H]2[C@@H](O)C[C@@]2(C)[C@H]1CC[C@]2(O)C(=O)CO + Cc1sc2c(c1C)C(c1ccc(Cl)cc1)=N[C@@H](CC(=O)OC(C)(C)C)c1nnc(C)n1-2 [NCGC00250412-19] | -35.3 |
| O=c1ncn2nc(Sc3ccc(F)cc3F)ccc2c1-c1c(Cl)cccc1Cl + Cc1sc2c(c1C)C(c1ccc(Cl)cc1)=N[C@@H](CC(=O)OC(C)(C)C)c1nnc(C)n1-2 [NCGC00250412-19] | -16.5 |
| O=c1[nH]cc(F)c(=O)[nH]1 + Cc1sc2c(c1C)C(c1ccc(Cl)cc1)=N[C@@H](CC(=O)OC(C)(C)C)c1nnc(C)n1-2 [NCGC00250412-19] | 42.1 |
| CN[C@@H](C)[C@H]1[C@H](O)C[C@@]2(C)[C@@H]3CC[C@H]4C(C)(C)[C@@H](NC)CC[C@@]45C[C@@]35CC[C@]12C + Cc1sc2c(c1C)C(c1ccc(Cl)cc1)=N[C@@H](CC(=O)OC(C)(C)C)c1nnc(C)n1-2 [NCGC00250412-19] | -149 |
| CN(C)NC(=O)CCC(=O)O + Cc1sc2c(c1C)C(c1ccc(Cl)cc1)=N[C@@H](CC(=O)OC(C)(C)C)c1nnc(C)n1-2 [NCGC00250412-19] | -133 |
| C[C@@H](c1ncncc1F)[C@](O)(Cn1cncn1)c1ccc(F)cc1F + Cc1sc2c(c1C)C(c1ccc(Cl)cc1)=N[C@@H](CC(=O)OC(C)(C)C)c1nnc(C)n1-2 [NCGC00250412-19] | -54.8 |
| Cc1c(NC(=O)c2ccc(C(C)(C)C)cc2)cccc1-c1cn(C)c(=O)c(Nc2ccc(C(=O)N3CCOCC3)cc2)n1 + Cc1sc2c(c1C)C(c1ccc(Cl)cc1)=N[C@@H](CC(=O)OC(C)(C)C)c1nnc(C)n1-2 [NCGC00250412-19] | -90.9 |
| O=C(O)Cc1ccccc1Nc1c(Cl)cccc1Cl + Cc1sc2c(c1C)C(c1ccc(Cl)cc1)=N[C@@H](CC(=O)OC(C)(C)C)c1nnc(C)n1-2 [NCGC00250412-19] | -76.1 |
| C[C@@H]1CC(=O)NN=C1c1ccc(NN=C(C#N)C#N)cc1 + Cc1sc2c(c1C)C(c1ccc(Cl)cc1)=N[C@@H](CC(=O)OC(C)(C)C)c1nnc(C)n1-2 [NCGC00250412-19] | -157 |
| CN(C)CCCNC(=O)c1ccc(-c2cc(O)c3ncccc3c2)cc1 + Cc1sc2c(c1C)C(c1ccc(Cl)cc1)=N[C@@H](CC(=O)OC(C)(C)C)c1nnc(C)n1-2 [NCGC00250412-19] | 404 |
| NC1(c2ccc(-c3nc4ccn5c(=O)[nH]nc5c4cc3-c3ccccc3)cc2)CCC1 + Cc1sc2c(c1C)C(c1ccc(Cl)cc1)=N[C@@H](CC(=O)OC(C)(C)C)c1nnc(C)n1-2 [NCGC00250412-19] | -281 |

5 neighbouring entries already listed, for reference:

| SMILES | excess over highest single agent |
| --- | --- |
| C=CCc1cc(OC)c(O)c(C(=O)NCCO)c1 + Cc1sc2c(c1C)C(c1ccc(Cl)cc1)=N[C@@H](CC(=O)OC(C)(C)C)c1nnc(C)n1-2 [NCGC00250412-19] | 33.1 |
| Cc1cc2c(cc1C1(c3ccc(C(=O)O)cn3)CC1)C(C)(C)CCC2(C)C + Cc1sc2c(c1C)C(c1ccc(Cl)cc1)=N[C@@H](CC(=O)OC(C)(C)C)c1nnc(C)n1-2 [NCGC00250412-19] | -297 |
| NC(=O)c1cccc2[nH]c(-c3ccc(C4CCCN4)cc3F)nc12 (stereo not given) + Cc1sc2c(c1C)C(c1ccc(Cl)cc1)=N[C@@H](CC(=O)OC(C)(C)C)c1nnc(C)n1-2 [NCGC00250412-19] | -20.3 |
| Cc1cc(C(=O)N2CCN(c3cccc(Cl)c3)CC2)n(-c2ccccc2)n1 + Cc1sc2c(c1C)C(c1ccc(Cl)cc1)=N[C@@H](CC(=O)OC(C)(C)C)c1nnc(C)n1-2 [NCGC00250412-19] | -153 |
| COc1cc2c(cc1O)CC[C@@H]1[C@@H]2CC[C@]2(C)[C@@H](O)CC[C@@H]12 + Cc1sc2c(c1C)C(c1ccc(Cl)cc1)=N[C@@H](CC(=O)OC(C)(C)C)c1nnc(C)n1-2 [NCGC00250412-19] | -161 |
